Measurements as given in PubChem BioAssay AID504834 (National Center for Advancing Translational Sciences (NCATS), 2011).
The campaign covered roughly 320,000 compounds. About 22,000 (6.9%) were called active. Inconclusive means that the source gave no clear call. Such entries were picked first, then a sample of the others. Calls follow the shape of the dose curve; as a rule, active = well fitted inhibition curve with a large enough effect; inconclusive = small, poorly fitted or top-dose-only effect, or another doubt; inactive = no such curve, though single readings can be large or run the other way. Where the call is inconclusive, the potency comes from a doubtful curve fit.

Test: Primary qHTS for delayed death inhibitors of the malarial parasite plastid, 96 hour incubation
Details: P. falciparum luciferase reporter growth; series mostly up to 28.7 µM; activity change, negative = inhibition: at the top concentration
Outline: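 Delayed-death screen, second-generation endpoint: infected erythrocytes, 2% hematocrit, 0.05% parasitemia final; 96 hours at 37 C, 5% CO2; luciferase detection reagent; luminescence decrease equals reduced growth.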
% is scaled to controls: 0 for no effect and ±100 for the full control effect; potency is read from the fitted curve at half-maximal effect.

| Compound | Potency | activity change, negative = inhibition |
| --- | --- | --- |
| CCN(c1ccc(OC)cc1)S(=O)(=O)c1ccc2c(c1)CC(C)N2C(=O)C1CC1 (configuration not stated) | inconclusive: 10.4 µM [inhibitor, partial curve, poor fit] | – |
| COc1ccccc1CCN1CCCC(CN(C)C(=O)c2ccoc2)C1 (configuration not stated) | – | inactive: -21.4% |
| O=C(OCC(=O)N(CCc1ccccc1)Cc1ccccc1)c1ccccc1NCCO | inconclusive: 20.8 µM [inhibitor, single point] | – |
| N#CCC(=O)N/N=C/c1ccccc1Cl | inconclusive: 8.28 µM [inhibitor, partial curve] | – |
| Cc1ccc(C(=O)CSc2nnnn2C(C)C)c(C)c1 | – | inactive: 52% |
| CCOc1ccccc1NC(=O)c1cc(-c2cc(OC)c(OC)c(OC)c2)nc2ccccc12 | inconclusive: 0.522 µM [inhibitor, full curve] | – |
| Cc1ccc(S(=O)(=O)N2CCOCC2)cc1NC(=O)CN1C(=O)CN(C)C1=O | inconclusive: 9.28 µM [inhibitor, partial curve, poor fit] | – |
| CCCc1nc(NCC2CCCO2)c2nnn(Cc3ccccc3)c2n1 (configuration not stated) | – | inactive: 22.5% |
| CCOc1ccc(CCNC(=O)COC(=O)COc2ccc(C#N)cc2)cc1OCC | inconclusive: 10.4 µM [inhibitor, partial curve, poor fit] | – |
| COc1ccc(NC(=O)CNC(=O)Cc2cccc3ccccc23)c(OC)c1 | inconclusive: 13.1 µM [inhibitor, partial curve] | – |
| COC(=O)[C@H](CCSC)NC(=O)Nc1cc(OC)cc(OC)c1 | inconclusive: 0.0928 µM [inhibitor, full curve, poor fit] | – |
| CCOc1cc(/C=C2\C(=N)N3N=C(S(C)(=O)=O)SC3=NC2=O)ccc1OCCOc1cccc(OC)c1 | inconclusive: 18.5 µM [inhibitor, single point] | – |
| CCC(C)(C)C1CCC(=NNC(=S)Nc2cccnc2)CC1 (configuration not stated) | inconclusive: 14.7 µM [inhibitor, single point] | – |
| CC(C)(C(=O)N[C@H](CO)c1ccccc1)C(=O)N[C@H](CO)c1ccccc1 | inconclusive: 0.0828 µM [inhibitor, full curve, poor fit] | – |
| CCCCC(CC)CNC(=O)CCCCn1c(=O)[nH]c2ccsc2c1=O (configuration not stated) | inconclusive: 18.5 µM [inhibitor, single point] | – |
| C=CCN(c1ccccc1)S(=O)(=O)c1cccc(C(=O)Nc2cc(C)ccn2)c1 | inconclusive: 18.5 µM [inhibitor, single point] | – |
| CCCCn1c(N)c(N(CCOC)C(=O)c2ccc(Cl)c(S(=O)(=O)N3CCCCC3)c2)c(=O)[nH]c1=O | inconclusive: 11.7 µM [inhibitor, single point] | – |
| O=C(Nc1ccccc1C(=O)N1CCCCC1)c1cccs1 | active: 6.57 µM | – |
| CN(C)CCOc1cc(Cl)cc(Cl)c1 | – | inactive: 23.3% |
| CN(C)S(=O)(=O)c1ccc(C(=O)OCCn2cnc3c2c(=O)n(C)c(=O)n3C)cc1 | inconclusive: 4.65 µM [inhibitor, single point] | – |
| Cc1ccccc1Nc1nc(NCc2ccco2)c2ccccc2n1 | – | inactive: 4.66% |
| FC(F)(F)c1cc(-c2ccco2)nc(NCc2cccnc2)n1 | inconclusive: 2.33 µM [inhibitor, single point] | – |
| Cc1cc(SCc2cc(=O)[nH]c3ccccc23)nc2ccccc12 | inconclusive: 0.928 µM [inhibitor, full curve, poor fit] | – |
| CC1(c2ccccc2Cl)NC(=O)N(CC(=O)N2CCc3ccccc3C2)C1=O (configuration not stated) | inconclusive: 10.4 µM [inhibitor, single point] | – |

| Compound | Potency | activity change, negative = inhibition |
| --- | --- | --- |
| CCCCN(C)CCCNC(=O)c1cccc(N2CCCC2=O)c1 | inconclusive: 4.15 µM [inhibitor, single point] | – |
| Cc1cc(Oc2nnnn2-c2ccccc2)ccc1Cl | – | inactive: 1.98% |
| CCOC(=O)C(=O)c1csc(NC(=O)COc2ccc(N(C)S(=O)(=O)c3ccc(F)cc3)cc2)n1 | – | inactive: 6.92% |
| CC(Nc1ccnc2cc(Cl)ccc12)c1ccc(S(N)(=O)=O)cc1 (configuration not stated) | active: 2.33 µM | – |
| Cc1ccc(-c2nc3ccccc3[nH]2)cc1NC(=O)c1ccco1 | inconclusive: 18.5 µM [inhibitor, single point] | – |
| Cc1cccc(N=C2NC(=O)c3cc([N+](=O)[O-])ccc32)c1 | inconclusive: 18.5 µM [inhibitor, single point] | – |
| O=C(CSc1nn(-c2ccccc2)c(=S)s1)Nn1cnnc1 | – | inactive: 10.8% |
| CP(=O)(Nc1cc(Cl)ccc1Cl)c1nc2c(s1)CCCC2 (configuration not stated) | – | inactive: 41% |
| COc1cccc(NC(=O)CN(C)C(=O)c2cc(-c3ccc(F)cc3)nc3ccccc23)c1 | inconclusive: 13.1 µM [inhibitor, partial curve, poor fit] | – |
| COCCNc1c(-c2ccc(O)cc2)nc2ccc(Cl)cn12 | – | inactive: -14.2% |
| Cc1ccc2nc(Cl)c(C#N)cc2c1 | – | inactive: -5.2% |
| O=C(CN1C(=O)/C(=C\C=C\c2ccccc2)SC1=S)Nc1ccc(F)cc1 | – | inactive: -9% |
| Cc1csc2c(NC3CCN(Cc4ccccc4)CC3)ncnc12 | – | inactive: -20% |
| O=C(COc1cccc2c1CCN(Cc1ccc(Br)cc1)C2=O)N1CCOCC1 | inconclusive: 16.5 µM [inhibitor, partial curve, poor fit] | – |
| O=C1[C@H]2[C@@H](c3ccc(F)cc3)N3C(=O)N(c4cccc(Br)c4)C(=O)[C@@]3(Cc3ccccc3)[C@H]2C(=O)N1C1CCCCC1 | inconclusive: 14.7 µM [inhibitor, single point] | – |
| CCOC(=O)Cc1ccc(-c2ccccc2)cc1 | inconclusive: 5.36 µM [inhibitor, partial curve, poor fit] | – |
| O=C(COc1ccc(Br)cc1)N1CCNC1=O | – | inactive: 12.1% |
| CC1CCCC(C)N1C(=O)CSc1nnnn1Cc1ccccc1 (configuration not stated) | inconclusive: 13.1 µM [inhibitor, single point] | – |
| CC(=O)N1CSCC1C(=O)O (configuration not stated) | inconclusive: 11.7 µM [inhibitor, single point] | – |
| Cc1c(OCC(=O)N2CCC(C(N)=O)CC2)ccc2c3c(c(=O)oc12)CCC3 | inconclusive: 18.5 µM [inhibitor, single point] | – |
| CCOC(=O)N1CCC(NC(=O)c2ccc(CS(=O)(=O)c3ccccc3C)o2)CC1 | inconclusive: 18.5 µM [inhibitor, single point] | – |
| CCOC(=O)c1[nH]c2ccc(OC)cc2c1N=CN(C)C | active: 0.131 µM | – |
| Cn1c(=O)c2c(nc(NC3CCCCC3)n2CC(=O)C23CC4CC(CC(C4)C2)C3)n(C)c1=O | – | inactive: -25.4% |
| NC(=O)C1CCN(C(=O)c2cc3n(n2)C(C(F)(F)F)CC(c2ccco2)N3)CC1 (configuration not stated) | inconclusive: 16.5 µM [inhibitor, single point] | – |

| Compound | Potency | activity change, negative = inhibition |
| --- | --- | --- |
| COc1cc(C(=O)Nc2ccc3oc(-c4cccnc4)nc3c2)cc(OC)c1OC | inconclusive: 9.28 µM [inhibitor, single point] | – |
| COc1cc2c(cc1NC(=O)COCC(=O)O)oc1ccccc12 | – | inactive: 44.6% |
| Cc1ccc(NC(=O)c2ccc(S(=O)(=O)N3CCOCC3)cc2)c(C)c1 | inconclusive: 0.415 µM [inhibitor, partial curve, poor fit] | – |
| O=C(CN1C(=O)C2C3C=CC(C3)C2C1=O)NCCN1CCCc2ccccc21 (configuration not stated) | – | inactive: 0% |
| CCOc1cc(CNCCO)cc(Br)c1OCc1ccc(Cl)cc1 | active: 11.7 µM | – |
| CC(NC(=O)/C(=C\c1ccco1)NC(=O)c1ccccc1Br)C(=O)O (configuration not stated) | – | inactive: 1.91% |
| Nc1ccc(Br)cc1C(=O)c1ccccc1 | – | inactive: -0.821% |
| COc1ccc(NC(=O)CN(C)Cc2cccs2)cc1Cl | – | inactive: -28.3% |
| CCOC(=O)c1ccc(NC(=O)C(=O)NCC2CCCO2)cc1 (configuration not stated) | inconclusive: 6.57 µM [inhibitor, partial curve] | – |
| COc1ccc(-c2c(C#N)c(N)n(N)c(=O)c2C#N)cc1Cl | inconclusive: 10.4 µM [inhibitor, single point] | – |
| CCOc1ccc(NC(=S)NC(=O)c2cnn(CC)c2)c([N+](=O)[O-])c1 | inconclusive: 11.7 µM [inhibitor, single point] | – |
| COC(=O)c1c(C)oc2c1cc(NS(=O)(=O)c1ccc(C(=O)O)cc1)c1ccccc12 | inconclusive: 18.5 µM [inhibitor, single point] | – |
| CC(=O)c1nc2ccccc2n1CCc1ccccc1 | – | inactive: 3.35% |
| O=C(CN1CCCC1)Nc1cccc(Cl)c1Cl | – | inactive: -33.6% |
| CCNS(=O)(=O)c1ccc(NC(=O)Nc2ccc3c(c2)OCO3)cc1 | – | inactive: 3.59% |
| CC(C)(C)NC(=O)C(=O)NN=C1CCCCCC1 | inconclusive: 6.57 µM [inhibitor, partial curve, poor fit] | – |
| CCCCOc1ccc(OCCNC(=O)c2ccco2)cc1 | inconclusive: 2.08 µM [inhibitor, partial curve] | – |
| CC1(C)Cc2c(c(-c3ccco3)nc3n[nH]c(N)c23)CO1 | inconclusive: 0.0657 µM [inhibitor, full curve, poor fit] | – |
| CCOC(=O)/C=C(\C)Sc1cc(O)c2ccccc2c1O | active: 1.65 µM | – |
| Cc1cc(S(=O)(=O)Nc2ccc(C(=O)NCC(c3ccccc3)N(C)C)cc2)ccc1F (configuration not stated) | active: 10.4 µM | – |
| COc1ccccc1N(CC(=O)NCCc1ccccc1)C(=O)CCC(=O)Nc1nccs1 | inconclusive: 2.33 µM [inhibitor, full curve, poor fit] | – |
| COc1cccc(CN2CC(C(=O)N3CCCCCC3)CCC2=O)c1 (configuration not stated) | inconclusive: 3.7 µM [inhibitor, single point] | – |
| CN(Cc1cc(-c2ccccc2)on1)C(=O)c1cc(COc2c(F)cccc2F)on1 | inconclusive: 10.4 µM [inhibitor, single point] | – |
| C/C(=N/Nc1ccc(Cl)cc1)c1cnnc(-c2ccccc2)n1 | active: 0.522 µM | – |

5 entries from above, reformatted:
Compound	Potency	activity change, negative = inhibition
COc1cc(C(=O)Nc2ccc3oc(-c4cccnc4)nc3c2)cc(OC)c1OC	inconclusive: 9.28 µM [inhibitor, single point]	–
CCOC(=O)c1ccc(NC(=O)C(=O)NCC2CCCO2)cc1 (configuration not stated)	inconclusive: 6.57 µM [inhibitor, partial curve]	–
CCNS(=O)(=O)c1ccc(NC(=O)Nc2ccc3c(c2)OCO3)cc1	–	inactive: 3.59%
CC(C)(C)NC(=O)C(=O)NN=C1CCCCCC1	inconclusive: 6.57 µM [inhibitor, partial curve, poor fit]	–
COc1ccccc1N(CC(=O)NCCc1ccccc1)C(=O)CCC(=O)Nc1nccs1	inconclusive: 2.33 µM [inhibitor, full curve, poor fit]	–
